From paper PMC6400584, “Activation mechanism of ATP-sensitive K^+ channels explored with real-time nucleotide binding” (eLife, 2019)

Assays:
[1] = tested on: SUR1-T1397*/Kir6.2; assay: Current inhibition in inside-out patches in the absence of Mg2+; assay type: biochemical, Homo sapiens
Procedure: (§1) Currents were recorded from inside-out membrane patches excised from transfected HEK-293T cells. Pipettes were pulled to a resistance of 1–5 MΩ and filled with an extracellular solution containing (in mM) 140 KCl, 1.2 MgCl2, 2.6 CaCl2, and 10 HEPES, pH 7.4 or 140 KCl, 1 EGTA, 10 HEPES, pH 7.3. The intracellular (bath) solutions contained either (in mM) 107 KCl, 2 MgCl2, 1 CaCl2, 10 EGTA, and 10 HEPES, pH 7.2 for experiments showing nucleotide-dependent activation or 140 KCl, 1 EDTA, 1 EGTA, 10 HEPES pH 7.3 for experiments showing nucleotide-dependent inhibition. Nucleotides were added as indicated. Patches were perfused with an 8-channel µFlow perfusion system. Data were acquired at a holding potential of −60 mV using an Axopatch 200B amplifier and Digidata 1322A digitizer with pClamp 9.0 software (Molecular Devices). Currents were digitized at 10 kHz and low-pass filtered at 1 kHz. KATP channels run down in excised patches (reviewed by Proks et al.) ([Proks et al., 2016]). For inhibitory concentration-response relationships, rundown was corrected by alternating test nucleotide solutions with nucleotide-free (control) solutions and expressing the test currents as a fraction of the average of the control currents before and after the test solution. […]

[2] = tested on: T1, SUR1-T1397*/Kir6.2-G334D; assay: Current activation in inside-out patches; assay type: biochemical, Homo sapiens
T1 construct: confirmed that >95% of SUR1-T1397* was full length; expressed in transfected cells; host or cells: HEK-293T
Procedure: as §1

Structure (SMILES) | h ([1]; Equation 4 fit to combined data) | h ([1]; mean ± SEM of fits of Equation 4 to individual experiments) | h (current activation) ([2]; Equation 5 fit to combined data) | h (current activation) ([2]; mean ± SEM of fits of equation 5 to individual experiments)
Nc1ncnc2c1ncn2[C@@H]1O[C@H](COP(=O)(O)OP(=O)(O)OP(=O)(O)O)[C@@H](O)[C@H]1O [ATP] | −1.1 ± 0.1 | −1.2 ± 0.1 | – | –
Nc1ncnc2c1ncn2[C@@H]1O[C@H](COP(=O)([O-])OP(=O)([O-])O)[C@@H](O)[C@H]1O.[Mg+2] [MgADP] | – | – | 1.2 ± 0.2 | 1.5 ± 0.3
